# Entries after “also recorded” stand apart in the source; their conditions may differ. At least one compound was matched to its structure with a doubt left.
# Experiments:
# [1] = tested on: K14 Rac1 animal model for psoriasis; experiment: K14 V12 Rac1 mouse model of psoriasis, IP treatment; format: in vivo; settings: for Effect (In vivo): IP, 20 doses
# Procedure: FIG. 1: IP treatment with benzamil ameliorates phenotype in a mouse model of psoriasis. […] (c) IP efficacy was dose-dependent (2.1-1.4-0.7 mg/kg 20 treatments) and distinct from another ENAC blocker Amiloride (10 mg/kg).
# FIG. 4: Benzamil alter Rac/STAT3 signaling, has effect on human psoriatic keratinocytes. […] Effects on Rac1 and PSTAT3 by Benzamil (10 uM) were validated in human primary psoriatic keratinocytes (Rac1-green, PSTAT3-red, DNA-blue) (b).
# Mice overexpressing a K14 driven hyperactive V12 Rac1 mutant display clinical-histologic features mimicking human psoriasis including hyperkeratosis, erythema, Koebnerization, Auspitz sign, arthritis, onychodystrophy, marked psoriasiform hyperplasia, parakeratosis, Munro microabcesses, dilated rete ridge blood vessels and characteristic immune infiltrates. Rac1 mouse and human psoriasis skin show similar epidermal thickness, suprabasilar Ki67, and increased expression of IL 1, 6, 17, 23, 36/CCL 2, 5, 17, 20/TNFα/TGFα/CARD14/IFIH1/IRFs, NFKB, STAT3 activation/β defensins/Act1/IL17R. Transcriptional comparison of psoriasis susceptibility genes in Rac1 mouse and human psoriatic skin show marked overlap of both epidermal and immune pathways. […] See, for example Winge et al. Journal of Investigative Dermatology (2014) 134, S9-S27.
# Benzamil attenuates Rac1-mediated psoriasis in a mouse model. In a K14 Rac1 animal model for psoriasis, Benzamil was injected ip every other day for 0, 10 and 20 injections of (2 mg/kg), or PBS.
# In psoriasis keratinocytes, cytokine-mediated nuclear translocation of PSTAT3 and NFκB is reduced following Benzamil treatment.
# [2] = tested on: K14 Rac1 animal model for psoriasis; experiment: Topical delivery in vivo in the mouse model of psoriasis; settings: for Effect (In vivo): Topical, 2 mg/ml, Daily, 20 doses
# [3] = tested on: phosphorylated STAT3 in primary psoriatic or control keratinocytes; experiment: Western blot of phosphorylated STAT3 in keratinocyte lysates; format: cell-based, human; settings: for Effect (WB): 24 h, ddH20
# [4] = tested on: Rac1 and PSTAT3 in human primary psoriatic keratinocytes; experiment: Confocal IF of Rac1 / PSTAT3 in keratinocytes; format: cell-based
# [5] = tested on: primary human psoriatic keratinocytes; experiment: MTT proliferation assay, psoriatic keratinocytes; format: cell-based; settings: for Effect (MTT proliferation): 24 h, ddH20
# [6] = tested on: primary human V12 Rac1 overexpressing keratinocytes; experiment: MTT proliferation assay, V12 Rac1 keratinocytes; format: cell-based
# [7] = tested on: organotypic 3D skin from primary psoriasis keratinocytes and autologous fibroblasts; experiment: Organotypic 3D in vitro model of psoriasis; format: cell-based, human; settings: 10 uM
# [8] = tested on: V12 Rac1 skin equivalents; experiment: Organotypic 3D skin equivalents with V12 Rac1 keratinocytes; format: cell-based, human; settings: 10 μM, 7 days at air-fluid interphase
# [9] = tested on: human psoriatic keratinocytes; experiment: Intrinsic Ca2+ buffering capacity of keratinocytes; format: cell-based
# [10] = tested on: reactive oxygen species (ROS); experiment: Reactive oxygen species after IL17 stimulation; format: cell-based
compound,measurement,setting,value
"NC(=NCc1ccccc1)NC(=O)c1nc(Cl)c(N)nc1N [Benzamil, benzyl amiloride]","Clinical phenotype (erythema, scaling, swelling/edema, hyperkeratosis)","[1]; IP 2 mg/kg every other day, 20 injections, 2 mg/kg","reduced scaling, erythema, edema and hyperkeratosis; also recorded: reversed erythema, scaling and swelling"
same,IL17 and IL22 mRNA transcripts in treated skin,"[1]; IP 2 mg/kg every other day, treated skin",although not IL17 and IL22
same,"Keratinocyte-derived mRNA transcripts in treated skin (TNFα, S100A7, K16)","[1]; IP 2 mg/kg every other day, treated skin, 2 mg/kg",normalization; also recorded: predominately affected
same,Epidermal phosphorylation of STAT3,"[1]; IP 2 mg/kg, treated lesional skin",reduced
same,Rac1-GTP expression and subcellular localization in treated lesional skin,"[1]; IP 2 mg/kg, 2 mg/kg",altered subcellular localization and reduced suprabasal expression
same,Rac1-GTP expression and subcellular localization in treated lesional skin,"[1]; IP 2 mg/kg, listed as benzamil, 2 mg/kg",markedly reduced and relocalized
same,Dose dependence of IP efficacy / effect on epidermal thickness,"[1]; IP 2.1/1.4/0.7 mg/kg, 20 treatments",dose dependent; also recorded: dose-dependent
same,Effect (In vivo),"[1]; ddH20, 0.7 mg/kg, EOD, 40 days",Reduced
same,Effect (In vivo),"[1]; ddH20, 1.4 mg/kg, EOD, 40 days",Partial
same,Effect (In vivo),"[1]; ddH20, 2 mg/kg, EOD, 40 days",Full
same,Effect (In vivo),"[1]; ddH20, 10 mg/kg, Daily, 20 days",Full
same,Psoriasiform hyperplasia (histologic analysis),[1]; IP-treated mice vs untreated,marked reduction
same,Epidermal TGFβ expression,[1]; IP-treated skin,strongly reduced
same,Suprabasal proliferation (Ki67 protein expression),[1]; IP-treated skin,abolished; also recorded: reduced
same,T (CD3+) and dendritic (cd11c+) cell counts in treated vs untreated/PBS skin,[1]; IP-treated skin,"comparable, elevated numbers; also recorded: No differences"
same,TGFα expression in skin,"[1]; IP-treated skin, histology",reduced
same,"Activated (nuclear translocation, phosphorylation) STAT3 and NFKB in treated skin","[1]; mouse model, treated skin",reduced
same,Interferon regulatory factors in treated skin,"[1]; mouse model, treated skin",not altering
same,Effect (In vivo),"[2]; ETOH, 20 days",Full
same,Effect (In vivo),"[2]; Vaseline, 20 days",Partial
same,"Scaling, erythema and epidermal thickening","[2]; topical once daily, 20 days, in 70% ETOH (2 mg/ml)","reduced scaling, erythema and epidermal thickening"
same,"Scaling, erythema and epidermal thickening","[2]; topical once daily, 20 days, in Vaseline (2 mg/ml)","reduced scaling, erythema and epidermal thickening"
same,"Scaling, erythema and epidermal thickening","[2]; topical, liquid or solid formulation",effective
same,Effect (WB),[3]; 0.1 uM,Low
same,Effect (WB),[3]; 1 uM,Low
same,Effect (WB),[3]; 10 uM,High
same,Effect (WB),[3]; 20 uM,High
same,Effect (WB),[3]; 50 uM,High
same,"Phosphorylated STAT3 (Western blot, ratio PSTAT3/total STAT3)",[3]; cell lysates from primary psoriatic or control keratinocytes,dose-dependent reduction
same,Effect (Confocal IF cells),"[4]; 10 uM, 24 h, ddH20",High
same,Effects on Rac1 and PSTAT3 (IF),"[4]; 10 uM, human primary psoriatic keratinocytes",validated
same,Subcellular localization of Rac1,[4]; primary human psoriatic keratinocytes,alters the subcellular localization
same,Cytokine-mediated nuclear translocation of PSTAT3 and NFκB,[4]; psoriasis keratinocytes,reduced
same,Effect (MTT proliferation),[5]; 0.05 uM,Low
same,Effect (MTT proliferation),[5]; 0.5 uM,High
same,Psoriatic keratinocytes proliferation (MTT),[5]; 500 nM,Significant decrease
same,Effect (MTT proliferation),[5]; 1 uM,High
same,Effect (MTT proliferation),[5]; 2.5 uM,High
same,Effect (MTT proliferation),[5]; 5 uM,High
same,Effect (MTT proliferation),[5]; 10 uM,High
same,Effect (MTT proliferation),[5]; 50 uM,High
same,Effect (MTT proliferation),[5]; 100 uM,High
same,"Proliferation (MTT), dose dependence","[5]; V12-transduced normal, (LacZ) psoriatic and (LacZ) control primary keratinocytes",dose-dependent reduction
same,Proliferation,"[5]; human psoriatic keratinocytes, concentration not given",significantly reduces
same,Proliferation,[6],significantly reduces
same,Effect (Organotypic skin),"[7]; every 24 h, 7 doses, 7 days, ddH20",High
same,"Cytokine-induced psoriasiform hyperplasia, Rac1GTP expression and basal and suprabasal proliferation (ki67)","[7]; IL23 25 ng/ml, IL17A/F 100 ng/ml, TNFα 100 ng/ml, IL22 25 ng/ml, psoriasis cells",rescued
same,Epidermal thickening of IL17-stimulated Rac1 skin equivalents,[8],reduced epidermal thickening
same,Intrinsic Ca^2+ buffering capacity,[9],restored
same,Intracellular distribution of reactive oxygen species (ROS),[10],alters the intracellular distribution
same,Total levels of ROS,[10]; following IL17 stimulation,reduces total levels

# Source: patent US20170182040A1, “EPITHELIAL ION CHANNEL (ENAC) BLOCKERS TO TREAT PSORIASIS” (The Board of Trustees of the Leland Stanford Junior …, priority 2014, published 2017)
